Measured values: patent publication US12635718B2, “Flavanone derivatives and their use as sweetness enhancers” (Firmenich SA, priority 2019, dated 2026)

System: taste panelists
Assay: Taste panel rating of sweetness and licorice taste of 5% sucrose solutions
Type: in vivo, human
Settings: scale 0 to 10
Protocol: A test compound, (2R,3R)-3-acetoxy-5,7,4′-trihydroxyflavanone (A01), was tested in comparison to naringenin for its sweetness enhancement of a 5% (w/w) aqueous solution of sucrose. Taste panelists were asked to taste the following 5% sucrose solutions in Henniez water and rate their sweetness on a scale from 0 to 10, and to rate the presence of any licorice taste in the sample on a scale from 0 to 10.
The test compound A01 was tested in comparison to other sweetness enhancers in a similar test to that set forth in Example 1. The comparative compounds are taxifolin 3-O-acetate (A02), and ampelopsin 3-O-acetate (A03).

[1] = +20 ppm in 5% sucrose solution (Table 2)

| SMILES | Licorice Taste (0-10) (+5 ppm in 5% (w/w) sucrose solution in Henniez water) | Licorice Taste (0-10) (+10 ppm in 5% (w/w) sucrose solution in Henniez water) | Licorice Taste (0-10) [1] | Licorice Taste (0-10) (+50 ppm in 5% (w/w) sucrose solution in Henniez water) |
| --- | --- | --- | --- | --- |
| CC(=O)O[C@H]1C(=O)c2c(O)cc(O)cc2O[C@@H]1c1ccc(O)cc1 [A01, (2R,3R)-3-acetoxy-5,7,4′-trihydroxyflavanone] | 1.0 | 2.0 | 1.5 | – |
| CC(=O)OC1C(=O)c2c(O)cc(O)cc2OC1c1cc(O)c(O)c(O)c1 (centres unmarked) [A03, ampelopsin 3-O-acetate, reference compound] | – | – | 0.0 | – |
| O=C1C[C@@H](c2ccc(O)cc2)Oc2cc(O)cc(O)c21 [naringenin, reference compound] | – | – | – | 0.5 |
